In US20080241155A1 (Human Genome Sciences, published 2008):
These are yes or no findings as the source states them, for the method shown. Binding seen in cells or lysates may run through a third protein. Some results given as binding are weak or reduced against the parent protein; the word gives no strength.

Biological target: T1, Fas ligand (UniProt P48023 130-281, limits assumed)
T1 construct: Detected by immunoblotting with an antibody to FasL (Pharmingen)
T1 sequence (looked up): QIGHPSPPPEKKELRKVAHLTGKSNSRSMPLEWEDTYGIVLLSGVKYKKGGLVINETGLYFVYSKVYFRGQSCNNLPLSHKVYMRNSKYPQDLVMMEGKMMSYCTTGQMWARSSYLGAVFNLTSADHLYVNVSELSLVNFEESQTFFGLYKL
Assay: receptor-Fc / ligand co-precipitation, immunoblot

B1: CD95-Fc (extracellular domain of CD-95 / Fas expressed as an Fc fusion) (Fc fusion, UniProt P25445 26-173, looked up)
chain: QVTDINSKGLELRKTVTTVETQNLEGLHHDGQFCHKPCPPGERKARDCTVNGDEPDCVPCQEGKEYTDKAHFSSKCRRCRLCDEGHGLEVEINCTRTQNTKCRCKPNFFCNSTVCEHCDPCTKCEHGIIKECTLTSNTKCKEEGSRSN
notes: extracellular domain; also called Fas-Fc; Fc-extracellular domain of Fas; not shown: Fc portion of human IgG
  binding: binds
